Experimental data published in PubChem BioAssay AID624297 (National Center for Advancing Translational Sciences (NCATS), 2012).
Hit rate of the full screen: of about 340,000 compounds, about 6,200 (1.8%) were called active. Inconclusive means that the source gave no clear call. Such entries were picked first, then a sample of the others. The call rests on the fitted dose curve; in most records, active means well fitted activation curve with a large enough effect; inconclusive means small, poorly fitted or top-dose-only effect; inactive means no such curve, though single readings can be large or run the other way. A potency beside an inconclusive call is a rough fit, not a confirmed value.
Potency means the concentration at half of the fitted maximal effect.

Experiment: A quantitative high throughput screen for small molecules that induce DNA re-replication in SW480 colon adenocarcinoma cells. Further: nearly all actives have a fitted effect of over 55% in size. On re-replication activation: % of control where 0% means no effect.
Conditions: Hoechst DNA content imaging, 48 h; re-replication activation: at 46.1 µM (top of the series)
Excerpt: H Molecular Libraries Probe Production Network [MLPCN] NIH Chemical Genomics Center [NCGC] MLPCN Grant: Fast Track K99 CA136555 Assay Provider: Melvin DePamphilis, NICHD, NIH Assay Overview Eukaryotic cells normally restrict genome duplication to once per cell division. When this process is aberrant, DNA re-replication occurs when cells reinitiate DNA replication before the first round of replication is complete. DNA re-replication induces the DNA damage response, arrests cell proliferation, and triggers apoptosis. The cell cycle components cyclin A, Cdt-1, Cdc6 and geminin are critical regulators of this process and their misregulation results in DNA re-replication in normal and cancer cells. To identify compounds that induce re-replication in normal cells, an image-based assay was used to measure DNA content of nuclei, as detected by the fluorescent DNA binding dye, Hoechst. Cell nuclei were imaged by a fluorescence scanning plate imager and compounds that induce DNA re-replication were identified by the increase of nuclei with elevated fluorescence intensity
For screening, 250 cells in 5 uL/well were dispensed into black clear 1536-well plates (Aurora) using a solenoid-based dispenser. Following transfer of 23 nL compound or DMSO vehicle by a pin tool, the plates were incubated 48 hr at 37 C and 5% CO2. After addition of 1 uL/well Hoescht stain, the plates were incubated 40 min at 37 C, 5% CO2 and total intensity of fluorescent objects (nuclei) were enumerated by an Acumen Explorer Ex3 (TTP LabTech) fluorescence scanning plate imager (405 nm excitation, 500-530 nm emission). Keywords: NIH Roadmap, MLPCN, MLI, MLSMR, qHTS, NCGC, DNA replication, cancer
With CC(=O)c1cccc(NC(=O)NN2CCN(C)CC2)c1 the Potency was active: 5.8 µM. In the case of O=C1CSC(=Nc2cccc(C(=O)O)c2)N1, the “re-replication activation” value is reported as inactive: -1.45%. In the case of Cc1cccn2cc(CCNS(=O)(=O)c3cccs3)nc12, the Potency is reported as inconclusive: 0.0052 µM [activator, full curve, poor fit]. For COc1ccccc1NC(=O)N1CCC(C(=O)c2ccc(Cl)cc2)CC1, the Potency was inconclusive: 6.31 µM [activator, single point]. For O=C(NCCc1ccc(Cl)cc1)C1CCC(=O)N1Cc1ccccc1Cl (stereo not given), the “re-replication activation” value was inactive: 1.64%. For O=S(=O)(c1ccc(NCCOc2ccccc2)nc1)N1CCCC1, the “re-replication activation” value was inactive: -6.13%. For Cc1c(Cl)cccc1NC(=O)CSc1nc2c(c(=O)[nH]1)CCCC2, the Potency was inconclusive: 29.1 µM [activator, partial curve, poor fit]. With CCN(CC(=O)Nc1ccccc1OC)C(=O)c1cc(-c2ccccc2)nn1-c1ccccc1 the Potency was inconclusive: 1.84 µM [activator, partial curve, poor fit]. For COc1ccccc1C(=O)OCC(=O)Nc1cccc(S(=O)(=O)NC2=NCCCCC2)c1, the “re-replication activation” value was inactive: -8.34%. For CCOCCCNC(=O)C(NC(=O)Cc1cccs1)c1ccc(OC)cc1 (stereo not given), the re-replication activation was inconclusive: 104% [activator]. In the case of CC(=O)Nc1cccc(C(=O)NC2CCCc3c2cnn3-c2ccc(C(C)(C)C)cc2)c1 (stereo not given), the Potency is reported as inconclusive: 6.51 µM [activator, partial curve]. In the case of O=C(CCc1nc(-c2ccccc2F)no1)Nc1ccc(Oc2ccccc2)cc1, the Potency is reported as inconclusive: 29.1 µM [activator, single point]. For Cc1cc(NC(=O)c2ccc3c(c2)OCO3)ccc1NC(=O)c1ccco1, the “re-replication activation” value was inactive: 1.63%. With CC(=O)c1ccc(OCc2cc(C(=O)N(C)Cc3nc4c(C)cccc4[nH]3)no2)cc1 the Potency was inconclusive: 29.1 µM [activator, single point]. With COC(=O)[C@@]1(Cc2ccc(OC)cc2)[C@H]2c3cc(C(=O)N(C)C)n(C[C@H](O)CO)c3C[C@H]2CN1C(=O)c1ccccc1 the “re-replication activation” value was inactive: 2.26%. In the case of Cc1ccc(Nc2nc(-c3cccs3)cs2)nc1, the Potency is reported as inconclusive: 0.0046 µM [activator, full curve, poor fit]. For Cc1ccc(-c2csc3ncnc(Cl)c23)cc1, the Potency was inconclusive: 29.1 µM [activator, single point]. In the case of O=C(NC(=S)Nc1ccccc1Br)c1ccco1, the “re-replication activation” value is reported as inactive: -4.69%. With COc1ccccc1NC(=O)Cn1nnc(C(=O)NCc2ccc3c(c2)OCO3)c1N the Potency was inconclusive: 0.82 µM [activator, full curve, poor fit]. For Cc1nn(Cc2ccccc2Cl)c(C)c1NC(=O)NC12CC3CC(CC(C3)C1)C2, the Potency was inconclusive: 29.1 µM [activator, partial curve, poor fit]. For COc1cc(NCCCn2cnc3c(OCc4ccccc4)ncnc32)cc(OC)c1OC, the “re-replication activation” value was inactive: -2.17%. For COc1ccc(/C=N/Nc2cc(C)nc3ccccc23)cc1, the Potency was active: 4.11 µM. In the case of Cc1cc(F)ccc1S(=O)(=O)N1CCCOC1CNC(=O)C(=O)NCc1ccc2c(c1)OCO2 (stereo not given), the “re-replication activation” value is reported as inactive: -7.05%. For COc1ccc(-c2nn(-c3ccccc3)cc2/C=N/O)cc1OC, the Potency was inconclusive: 14.6 µM [activator, partial curve, poor fit]. In the case of COc1ccc(C)cc1Nc1n[n+](-c2ccccc2)c(-c2ccc(SC)cc2)s1, the Potency is reported as inconclusive: 29.1 µM [activator, single point]. For Cc1ccc(OCC(O)CN2CCC(Cc3ccccc3)CC2)c(C)c1 (stereo not given), the Potency was inconclusive: 29.1 µM [activator, single point]. In the case of COc1ccccc1-n1nnnc1SCC(=O)NCC1(N2CCCCC2)CCCCC1, the “re-replication activation” value is reported as inactive: -11%. In the case of COc1cc(OC)cc(-n2nnnc2SCC(=O)N2CCCC2)c1, the “re-replication activation” value is reported as inactive: -1.58%. With O=C(N[C@H](Cc1ccc(Cl)cc1)C(=O)O)OCC1c2ccccc2-c2ccccc21 the Potency was inconclusive: 29.1 µM [activator, single point]. In the case of CC(=O)c1cccc(Nc2cc(C)nc3c(C)cccc23)c1, the Potency is reported as inconclusive: 6.51 µM [activator, partial curve, poor fit]. For CN(C)c1ccc(C(=O)/C=C/c2cccnc2)cc1, the Potency was inconclusive: 20.6 µM [activator, single point]. For CCCN(Cc1ccccc1)C(=S)NC(=O)c1ccccc1[N+](=O)[O-], the “re-replication activation” value was inactive: -4.35%. With COc1ccc(OCc2cc(C(=O)NC(C)c3cnn(C)c3)no2)c(Cl)c1 (stereo not given) the “re-replication activation” value was inactive: 1.76%. In the case of COc1ccc(/C=N/n2c(-c3ccco3)nc3ccccc3c2=O)cc1, the “re-replication activation” value is reported as inactive: -1.05%. With COc1ccc(OCCCCn2c(CO)nc3ccccc32)cc1 the Potency was inconclusive: 16.4 µM [activator, single point]. In the case of O=[N+]([O-])c1ccc(N2CCN(c3ccccc3)CC2)cc1, the re-replication activation is reported as inconclusive: 58.6% [activator]. With COc1ccc(C(=O)COC(=O)Cn2cnc3c2c(=O)n(C)c(=O)n3C)c(OC)c1 the Potency was inconclusive: 32.6 µM [activator, single point]. For O=C(Nc1ccc2c(c1)OCO2)c1cc(-c2ccccc2Cl)on1, the “re-replication activation” value was inactive: 1.85%. For COCC1CCN(C(=O)c2cc(COc3ccccc3SC)on2)C1 (stereo not given), the “re-replication activation” value was inactive: -7.23%. With COc1ccc(-n2c(C)cc(C(=O)COc3ccc(C)nc3[N+](=O)[O-])c2C)cc1 the Potency was inconclusive: 23.1 µM [activator, single point]. In the case of Cc1ccc(C(=O)CSc2nnc(-c3cccnc3)n2N)cc1, the Potency is reported as inconclusive: 14.6 µM [activator, partial curve]. With COc1ccccc1N(C)S(=O)(=O)c1ccc(C(=O)Nc2nccs2)cc1 the “re-replication activation” value was inactive: -9.23%. In the case of Clc1cccc(CN2CCc3c([nH]c4ccccc34)C2)c1Cl, the Potency is reported as inconclusive: 29.1 µM [activator, single point]. In the case of COc1ccc(OC)c(-c2csc(NC(=O)c3ccc(F)cc3)n2)c1, the Potency is reported as inconclusive: 20.6 µM [activator, single point]. For CC(C)(C)OC(=O)CNC(=O)c1[nH]cnc1C(=O)N[C@@H](CCCCNC(=O)OC(C)(C)C)C(=O)OC(C)(C)C, the Potency was inconclusive: 6.51 µM [activator, single point]. With Nc1c(C(=O)NC2CCCC2)c2nc3ccccc3nc2n1/N=C/c1cccnc1 the Potency was inconclusive: 2.31 µM [activator, partial curve, poor fit]. For CCOC(=O)c1c(C)[nH]c(C(=O)COC(=O)CSC)c1C, the “re-replication activation” value was inactive: 5.01%. In the case of C=C1CCN([C@@H](C)C(=O)NCc2ccc(Cl)cc2)S(=O)(=O)c2ccccc21, the Potency is reported as inconclusive: 2.91 µM [activator, partial curve, poor fit]. In the case of Cn1cccc1/C=N/NC(=O)c1ccc[n+]([O-])c1, the Potency is reported as inconclusive: 0.251 µM [activator, partial curve, poor fit]. For CCOc1ccc(CN(CCO)CCO)cc1[N+](=O)[O-], the Potency was inconclusive: 29.1 µM [activator, single point]. For O=C(Nc1ccc(N2CCN(C(=O)c3ccc(Cl)cc3)CC2)cc1)c1cccs1, the Potency was inconclusive: 29.1 µM [activator, single point]. With COc1ccccc1N(CC(=O)Nc1ccccc1C)S(C)(=O)=O the “re-replication activation” value was inactive: 16.8%. In the case of N#Cc1ccc(C(=O)NC(=S)NC2CCCCC2)cc1, the Potency is reported as inconclusive: 14.6 µM [activator, single point]. With O=C(c1cccc(S(=O)(=O)N2CCCCC2)c1)N(CCc1ccccc1)Cc1ccccc1 the “re-replication activation” value was inactive: 3.15%. For O=C(NCc1ccco1)c1ccc(COc2ccccc2Cl)cc1, the “re-replication activation” value was inactive: 7.08%. For CCCCCC(=O)NNC(=O)c1c(O)c2ccccc2n(CC)c1=O, the Potency was inconclusive: 6.51 µM [activator, partial curve, poor fit]. For CN(C)C(CNC(=O)CCNS(=O)(=O)c1ccccc1C(F)(F)F)c1ccccc1 (stereo not given), the “re-replication activation” value was inactive: 4.92%. With Cc1ccc(NC(=O)CSc2nc3ccccc3c(=O)n2CCCN2CCCCC2)cc1C the Potency was inconclusive: 11.6 µM [activator, partial curve, poor fit]. For Clc1ccc(/C(Cc2nc3ccccc3[nH]2)=N\Nc2ccccc2)cc1, the Potency was inconclusive: 29.1 µM [activator, single point]. In the case of CCOC(=S)SCC(=O)N1CCc2cc(OC)ccc2C1C1C(=O)CCCC1=O (stereo not given), the Potency is reported as active: 10.3 µM. With CCCCNC(=O)C(C)N(CCN(C)C)C(=O)CCCN1C(=O)NC(c2ccc(Cl)cc2)C(C(=O)OCc2ccccc2)=C1C (stereo not given) the Potency was inconclusive: 20.6 µM [activator, single point]. For COc1ccc(-n2nc3c(c2NC(=O)c2c(-c4ccccc4Cl)noc2C)CS(=O)(=O)C3)cc1, the “re-replication activation” value was inactive: 3.02%. With O=C(COc1ccccc1F)NNC(=O)c1ccc(N2CCCCC2)c([N+](=O)[O-])c1 the Potency was inconclusive: 2.06 µM [activator, partial curve, poor fit]. With Cc1cc(C)nc(N/N=C/c2sccc2C)n1 the “re-replication activation” value was inactive: 9.76%. With NNC(=O)Cn1c(COc2ccc(Cl)cc2)nc2ccccc21 the Potency was inconclusive: 25.9 µM [activator, partial curve, poor fit]. With O=C(NCCCN1CCCC1=O)c1cc(S(=O)(=O)N2CCOCC2)c(Cl)cc1Cl the Potency was active: 4.61 µM. With CCn1cc(/C=C/C(=O)Nc2ccn(Cc3c(F)c(F)c(F)c(F)c3F)n2)cn1 the Potency was inconclusive: 0.116 µM [activator, full curve, poor fit]. For CCc1ccc(C2c3[nH]c4ccccc4c3CCN2C(=O)c2cc(C)nn2C)cc1 (stereo not given), the Potency was inconclusive: 29.1 µM [activator, single point]. In the case of O=C(O)CCSc1ccc([N+](=O)[O-])cc1[N+](=O)[O-], the Potency is reported as inconclusive: 14.6 µM [activator, partial curve, poor fit]. With COc1ccc(C(C)NC(=S)NCc2ccc(F)cc2)cc1OC (stereo not given) the Potency was inconclusive: 29.1 µM [activator, single point].
